From publication PMC7819943, “Rice protein-binding microarrays: a tool to detect cis-acting elements near promoter regions in rice”
Some of the results follow.

The chains behind the UniProt entries cited, without tags or fusion partners.
UniProt Q0JBA9, entry or part of it: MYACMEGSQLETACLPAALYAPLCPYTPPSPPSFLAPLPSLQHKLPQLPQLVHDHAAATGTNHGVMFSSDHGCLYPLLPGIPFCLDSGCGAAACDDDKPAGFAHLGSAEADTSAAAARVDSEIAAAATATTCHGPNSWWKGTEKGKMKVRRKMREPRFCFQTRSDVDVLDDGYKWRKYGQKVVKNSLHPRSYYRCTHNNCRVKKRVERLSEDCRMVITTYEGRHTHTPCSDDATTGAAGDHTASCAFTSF

What follows are sequences tested against OsWRKY34 (Oryza sativa, UniProt Q0JBA9 1-250) (assay: protein-binding microarray (RPBM); PBS, 2% BSA, 51.3 ng/ul salmon testes DNA, 50 uM zinc acetate, 200 nM TF, 25 C, 1 h; high values mean tight binding). Details: protein: recombinant; tags: N-terminal polyhistidine and DsRed monomer fusion (pET32a); label: CyDye5-dUTP incorporated in the synthesized complementary strand; 3' TTTTT single-stranded linker to array surface; dsDNA, one strand shown.
Procedure, shortened: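 Binding signal here means per-feature fluorescence intensity in arbitrary units. The values were read on an Axon 4000B scanner after a custom Agilent array, double-stranded by primer extension with Cy5-dUTP, was incubated with 200 nM protein at 25 °C for 1 h in PBS with 2% BSA, salmon testes DNA and 50 µM zinc acetate, then washed. The proteins were transcription factors with an N-terminal polyhistidine tag and DsRed, expressed in E. coli BL21-CodonPlus and purified on Ni–NTA.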
For “AACGTGACTGTCCCATTATCTTGTGTCCACTTTATTTATACGGAGTCACCTAGTGCAG”, the binding signal was 10400 fluorescence intensity (a.u.). For “AATGCACTCATTTTCTTCCCTATGCCTCTTCTCAGGGAGTCGGAGTCACCTAGTGCAG”, the binding signal was 8030 fluorescence intensity (a.u.). In the case of “GCTTCCGTACAACTGCTTCAACGTGTCCGTGTTACACAATCGGAGTCACCTAGTGCAG”, the binding signal is reported as 8670 fluorescence intensity (a.u.). With “AGACACCTTTGAAGCTGTCCTGTGTCGGCAGCGTTGCGTCCGGAGTCACCTAGTGCAG” the binding signal was 8470 fluorescence intensity (a.u.). “GCCATCTCCTTTCTCGCGCCGTCTCATCTCATCTTCTTCGCGGAGTCACCTAGTGCAG” was tested, and the binding signal was 10900 fluorescence intensity (a.u.). In the case of “CTCTTTTTCATATTGTTATCTTGGGATCTGATTTTTGTCCCGGAGTCACCTAGTGCAG”, the binding signal is reported as 9170 fluorescence intensity (a.u.). “TATGCCGCCTATCATCATCATTCCACTAGTAGCAAAACGGCGGAGTCACCTAGTGCAG” was tested, and the binding signal was 8200 fluorescence intensity (a.u.). “GGTTCCTGCTGTATTTTTCTCTTGACTGTCTTCTCTCTCCCGGAGTCACCTAGTGCAG” was tested, and the binding signal was 14000 fluorescence intensity (a.u.). “GTCGTGCCGGCGCGTGTTGCTTGCTATTGGGGTCTTACTTCGGAGTCACCTAGTGCAG” was tested, and the binding signal was 12000 fluorescence intensity (a.u.). In the case of “GTATGCATTATTATGCTGATTAATTTGGCCTGGTTATTTGCGGAGTCACCTAGTGCAG”, the binding signal is reported as 8160 fluorescence intensity (a.u.). In the case of “AAAAATAAACTTGATTGTGATGTGGGCTGGGCCGGAAGTACGGAGTCACCTAGTGCAG”, the binding signal is reported as 8270 fluorescence intensity (a.u.). With “TAGCTTCTATAACTGCAAGATTTTCAATCTGTCACCTGATCGGAGTCACCTAGTGCAG” the binding signal was 11500 fluorescence intensity (a.u.). “GCGGCCTCCAATTCGAACGCCCCAGTTGCTCGCGCCGCCGCGGAGTCACCTAGTGCAG” was tested, and the binding signal was 10000 fluorescence intensity (a.u.). “CAGCCATGTCAGCCAGGTTAGTCAATCCACTGTCAATTTCCGGAGTCACCTAGTGCAG” was tested, and the binding signal was 8560 fluorescence intensity (a.u.). “TGTTCGCGTCCATCGTTGACTTTTTCAACGCCATGCACGCCGGAGTCACCTAGTGCAG” was tested, and the binding signal was 30900 fluorescence intensity (a.u.). “ATCCAAGCCGTCCATCTTCACCCGTCACTGTCACTCGCCACGGAGTCACCTAGTGCAG” was tested, and the binding signal was 16900 fluorescence intensity (a.u.). In the case of “CTTTAGGTGTTGCGGTCATACTTGTCAACTTGTCACAAAACGGAGTCACCTAGTGCAG”, the binding signal is reported as 8690 fluorescence intensity (a.u.). In the case of “AGTGCATATGAATGTGTGTGTGTGTTTTTTTTGCGGGGAACGGAGTCACCTAGTGCAG”, the binding signal is reported as 10700 fluorescence intensity (a.u.). “TCTCTCCCTTGTCCTCTGTCTGAATTGCCCAGCAGGTCCACGGAGTCACCTAGTGCAG” was tested, and the binding signal was 8780 fluorescence intensity (a.u.). With “ATCCACAGCTGACGCCCCGATGCTCCACCACCACTCCAGCCGGAGTCACCTAGTGCAG” the binding signal was 9350 fluorescence intensity (a.u.). For “ACCTACCACCACCTTACCCTCTCGCTGACATCCCGGCCCCCGGAGTCACCTAGTGCAG”, the binding signal was 12000 fluorescence intensity (a.u.). “ACTTGTCACATCACATCATCTTTCATTCATGTAACAACTTCGGAGTCACCTAGTGCAG” was tested, and the binding signal was 9290 fluorescence intensity (a.u.). For “TGTTTTTTTCCTATATTTAAATAGTGTGTTTTTCTTTTCTCGGAGTCACCTAGTGCAG”, the binding signal was 12700 fluorescence intensity (a.u.). In the case of “TCACTTCACAGATTCACACACACACACACACACACTCTCTCGGAGTCACCTAGTGCAG”, the binding signal is reported as 8440 fluorescence intensity (a.u.). In the case of “CATTCTTTCGTTTGCGTGCGTGACTCTCCAAGTACTCCCTCGGAGTCACCTAGTGCAG”, the binding signal is reported as 9220 fluorescence intensity (a.u.). In the case of “TCCACTATGACTTATTTTGGTGTATCCCTACTTTTTAATCCGGAGTCACCTAGTGCAG”, the binding signal is reported as 9280 fluorescence intensity (a.u.). For “CTTTGCTTACCATTGACTCCTTTTTCCATCCAAGCCTAAGCGGAGTCACCTAGTGCAG”, the binding signal was 10300 fluorescence intensity (a.u.). For “AGTCATTGCCATTGATCCTATGTCCTCTATTGATCTTTCTCGGAGTCACCTAGTGCAG”, the binding signal was 11100 fluorescence intensity (a.u.). For “GGCCGCACCACCATTCCACCCGTCCACCTCGTTGCCTCCGCGGAGTCACCTAGTGCAG”, the binding signal was 8690 fluorescence intensity (a.u.). In the case of “TCCTTCATGCATCCATTGTACAAAGGTCGTTATTGAGAAACGGAGTCACCTAGTGCAG”, the binding signal is reported as 9060 fluorescence intensity (a.u.). In the case of “CTCGTGCTGCTTCCACCCCTCCCTCGTCGCCTTGCCAGTTCGGAGTCACCTAGTGCAG”, the binding signal is reported as 9440 fluorescence intensity (a.u.). With “CCCAACGCAAGTTCTTCCTGTCGCTTCACCTTCACGCAGCCGGAGTCACCTAGTGCAG” the binding signal was 9940 fluorescence intensity (a.u.). “CTCATCTTGTCCTCTCTTTCTCCGTCGTCTTCCTTTACTGCGGAGTCACCTAGTGCAG” was tested, and the binding signal was 8450 fluorescence intensity (a.u.). “TTTTCTTATTTAGATTCAAATTTTACCTCGGTTTTATGTTCGGAGTCACCTAGTGCAG” was tested, and the binding signal was 8540 fluorescence intensity (a.u.). In the case of “ATCTGTAGCCCGCTGTTTTTCTCTCTCATTTTTTATCTCACGGAGTCACCTAGTGCAG”, the binding signal is reported as 9840 fluorescence intensity (a.u.). In the case of “AGGGTTTTGTTTTTTTAGATTTTATTTTTTTCGGCTTTTTCGGAGTCACCTAGTGCAG”, the binding signal is reported as 10200 fluorescence intensity (a.u.). With “GTCATTCATTTGGGAAGCACCCGTTTGGCCAGTTCTTTTCCGGAGTCACCTAGTGCAG” the binding signal was 10500 fluorescence intensity (a.u.). With “ATCACCCTGATTATCGTTTCTAAGCCATATTTAGCAAACTCGGAGTCACCTAGTGCAG” the binding signal was 8650 fluorescence intensity (a.u.). With “ACTTTTTTGGTTTGTTCAGGCTTTGGAATAGGTTTTTAGGCGGAGTCACCTAGTGCAG” the binding signal was 8140 fluorescence intensity (a.u.). “CCACTTCGTAGTCGTAGTTCAGCATATCAGCCACTCTTTCCGGAGTCACCTAGTGCAG” was tested, and the binding signal was 9050 fluorescence intensity (a.u.). “TATTCACGCTGTAGATACTGTTATGTTCCAATTGTCACGGCGGAGTCACCTAGTGCAG” was tested, and the binding signal was 8700 fluorescence intensity (a.u.). In the case of “TTTCTATATTGCATATCCTCCTAAAATATCTCGCGGTTGACGGAGTCACCTAGTGCAG”, the binding signal is reported as 8350 fluorescence intensity (a.u.).
